This passage reports binding results from patent US20150258180A1 (UNIVERSITY OF MANITOBA, published 2015).

Amino acid sequences for entries named in this document (tags omitted). Residues count along the entry.
UniProt P11717, residues 41-2491: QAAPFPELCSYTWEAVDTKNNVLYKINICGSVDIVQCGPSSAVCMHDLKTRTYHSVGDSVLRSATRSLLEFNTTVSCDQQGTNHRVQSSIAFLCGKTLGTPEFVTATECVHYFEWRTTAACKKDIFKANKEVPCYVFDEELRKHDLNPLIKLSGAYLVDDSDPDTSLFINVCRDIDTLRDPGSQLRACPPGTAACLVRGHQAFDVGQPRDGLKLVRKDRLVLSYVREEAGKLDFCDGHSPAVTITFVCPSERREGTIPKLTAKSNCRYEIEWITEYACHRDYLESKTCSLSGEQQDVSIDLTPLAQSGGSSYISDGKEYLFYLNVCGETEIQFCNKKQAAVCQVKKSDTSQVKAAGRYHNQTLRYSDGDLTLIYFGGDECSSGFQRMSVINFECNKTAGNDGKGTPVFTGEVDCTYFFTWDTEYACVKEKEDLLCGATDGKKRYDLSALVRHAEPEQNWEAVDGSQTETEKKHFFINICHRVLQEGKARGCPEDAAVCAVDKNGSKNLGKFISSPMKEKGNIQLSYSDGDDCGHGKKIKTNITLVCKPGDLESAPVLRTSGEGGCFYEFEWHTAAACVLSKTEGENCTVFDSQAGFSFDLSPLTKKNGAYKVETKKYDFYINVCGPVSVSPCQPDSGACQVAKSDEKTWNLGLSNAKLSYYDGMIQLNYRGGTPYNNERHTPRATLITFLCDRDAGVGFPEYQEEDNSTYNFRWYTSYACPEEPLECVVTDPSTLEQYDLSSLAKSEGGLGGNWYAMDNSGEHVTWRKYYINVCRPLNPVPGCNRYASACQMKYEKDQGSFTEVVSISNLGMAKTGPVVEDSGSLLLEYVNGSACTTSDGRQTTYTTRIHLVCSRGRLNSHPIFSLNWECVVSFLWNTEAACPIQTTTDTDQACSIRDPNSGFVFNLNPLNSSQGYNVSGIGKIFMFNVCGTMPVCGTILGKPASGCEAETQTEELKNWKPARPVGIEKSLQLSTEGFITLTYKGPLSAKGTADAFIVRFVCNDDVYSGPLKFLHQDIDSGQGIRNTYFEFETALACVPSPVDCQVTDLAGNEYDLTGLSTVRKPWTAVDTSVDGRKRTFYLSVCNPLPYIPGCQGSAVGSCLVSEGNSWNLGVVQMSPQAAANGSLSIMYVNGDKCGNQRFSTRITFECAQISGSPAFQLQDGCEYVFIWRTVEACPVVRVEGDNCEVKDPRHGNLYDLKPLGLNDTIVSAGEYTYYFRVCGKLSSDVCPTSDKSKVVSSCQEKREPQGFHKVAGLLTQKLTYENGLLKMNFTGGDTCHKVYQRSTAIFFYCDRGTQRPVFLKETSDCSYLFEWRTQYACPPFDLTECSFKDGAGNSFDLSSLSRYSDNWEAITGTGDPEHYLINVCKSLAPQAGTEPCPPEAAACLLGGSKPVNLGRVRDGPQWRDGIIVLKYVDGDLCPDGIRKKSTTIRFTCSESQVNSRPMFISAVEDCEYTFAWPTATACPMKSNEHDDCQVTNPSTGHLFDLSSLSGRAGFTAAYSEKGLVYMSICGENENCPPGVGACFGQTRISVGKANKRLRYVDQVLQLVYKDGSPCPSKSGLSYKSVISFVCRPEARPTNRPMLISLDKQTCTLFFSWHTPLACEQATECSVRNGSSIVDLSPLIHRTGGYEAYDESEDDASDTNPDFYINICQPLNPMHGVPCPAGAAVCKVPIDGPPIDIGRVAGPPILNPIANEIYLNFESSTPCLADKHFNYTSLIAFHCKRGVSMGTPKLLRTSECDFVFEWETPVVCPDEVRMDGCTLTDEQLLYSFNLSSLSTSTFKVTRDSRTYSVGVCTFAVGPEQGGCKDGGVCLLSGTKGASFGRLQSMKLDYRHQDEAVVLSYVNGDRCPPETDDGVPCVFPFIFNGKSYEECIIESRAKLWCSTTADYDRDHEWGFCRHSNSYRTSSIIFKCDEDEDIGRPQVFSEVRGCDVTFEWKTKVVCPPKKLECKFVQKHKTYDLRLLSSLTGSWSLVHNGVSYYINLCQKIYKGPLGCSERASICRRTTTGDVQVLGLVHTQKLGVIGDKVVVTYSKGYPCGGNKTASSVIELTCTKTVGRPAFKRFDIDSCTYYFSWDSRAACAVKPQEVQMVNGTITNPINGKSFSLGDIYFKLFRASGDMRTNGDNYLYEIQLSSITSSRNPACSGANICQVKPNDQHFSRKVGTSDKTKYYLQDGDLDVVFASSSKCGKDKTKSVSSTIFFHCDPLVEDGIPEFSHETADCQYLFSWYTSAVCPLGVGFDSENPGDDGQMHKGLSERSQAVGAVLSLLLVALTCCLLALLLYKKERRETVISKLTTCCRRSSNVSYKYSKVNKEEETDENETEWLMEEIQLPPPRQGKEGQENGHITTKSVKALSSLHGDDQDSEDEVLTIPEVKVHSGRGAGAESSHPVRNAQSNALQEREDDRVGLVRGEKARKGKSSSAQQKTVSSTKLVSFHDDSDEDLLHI

This assay concerns the target plasma membrane mannose-6-phosphate receptor of human Tay-Sachs fibroblasts (human) (UniProt P11717). Kind of assay: uptake from conditioned media by TSD fibroblasts, with or without 5 mM mannose-6-phosphate; read as intracellular MUGS activity.

Results are given in words; binding and its absence hold for the method and conditions named. Some entries that bind do so weakly or less than the wild type.

B1: secreted variant β-hexosaminidase protein in conditioned media (enzyme)
chain: LWPWPQNFQTSDQRYVLYPNNFQFQYDVSSAAQPGCSVLDEAFQRYRDLLFGSGSWPRPYLTGKRHTLEKNVLVVSVVTPGCNQLPTLESVENYTLTINDDQCLLLSETVWGALRGLETFSQLVWKSAEGTFFINKTEIEDFPRFPHRGLLLDTSRHYLPLKSILDTLDVMAYNKLNVFHWHLVDDQSFPYESFTFPELMRKGSYSLSHIYTAQDVKEVIEYARLRGIRVLAEFDTPGHTLSWGPGIPGLLTPCYSGSEPSGTFGPVNPSLNNTYEFMSTFFLEVSSVFPDFYLHLGGDEVDFTCWKSNPEIQDFMRKKGFGEDFKQLESFYIQTLLDIVSSYGKGYVVWQEVFDNKVKIQPDTIIQVWREDIPVNYMKELELVTKAGFRALLSAPWYLNRISYGQDWRKFYKVEPLAFEGTPEQKALVIGGEACMWGEYVDATNLVPRLWPRAGAVAERLWSNKLTRDMDDAYDRLSHFRCELVRRGVAAQPLYAGYCNQEFEQT
modifications: mannose-6-phosphate on Asn-linked oligosaccharides
B1: the binding entry is given as “binds”.
